Results reported in PubChem BioAssay AID488840 (Broad Institute, 2010).
Screen size: about 1,400 compounds; about 45 (3%) were called active.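 How the source made its calls: active means half-maximal dose of signal decrease from fit no higher than ten times the top valid tested dose; inconclusive means fit invalid, or curve flat with 30 to 70% inhibition; inactive means the rest.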 This is one part of the list. Potency and affinity values are given separately.

Chains of the proteins cited; added tags and fusions are not shown. Lines headed by an entry give the natural chain unless they say otherwise; changes in a name come on top.
UniProt O75164: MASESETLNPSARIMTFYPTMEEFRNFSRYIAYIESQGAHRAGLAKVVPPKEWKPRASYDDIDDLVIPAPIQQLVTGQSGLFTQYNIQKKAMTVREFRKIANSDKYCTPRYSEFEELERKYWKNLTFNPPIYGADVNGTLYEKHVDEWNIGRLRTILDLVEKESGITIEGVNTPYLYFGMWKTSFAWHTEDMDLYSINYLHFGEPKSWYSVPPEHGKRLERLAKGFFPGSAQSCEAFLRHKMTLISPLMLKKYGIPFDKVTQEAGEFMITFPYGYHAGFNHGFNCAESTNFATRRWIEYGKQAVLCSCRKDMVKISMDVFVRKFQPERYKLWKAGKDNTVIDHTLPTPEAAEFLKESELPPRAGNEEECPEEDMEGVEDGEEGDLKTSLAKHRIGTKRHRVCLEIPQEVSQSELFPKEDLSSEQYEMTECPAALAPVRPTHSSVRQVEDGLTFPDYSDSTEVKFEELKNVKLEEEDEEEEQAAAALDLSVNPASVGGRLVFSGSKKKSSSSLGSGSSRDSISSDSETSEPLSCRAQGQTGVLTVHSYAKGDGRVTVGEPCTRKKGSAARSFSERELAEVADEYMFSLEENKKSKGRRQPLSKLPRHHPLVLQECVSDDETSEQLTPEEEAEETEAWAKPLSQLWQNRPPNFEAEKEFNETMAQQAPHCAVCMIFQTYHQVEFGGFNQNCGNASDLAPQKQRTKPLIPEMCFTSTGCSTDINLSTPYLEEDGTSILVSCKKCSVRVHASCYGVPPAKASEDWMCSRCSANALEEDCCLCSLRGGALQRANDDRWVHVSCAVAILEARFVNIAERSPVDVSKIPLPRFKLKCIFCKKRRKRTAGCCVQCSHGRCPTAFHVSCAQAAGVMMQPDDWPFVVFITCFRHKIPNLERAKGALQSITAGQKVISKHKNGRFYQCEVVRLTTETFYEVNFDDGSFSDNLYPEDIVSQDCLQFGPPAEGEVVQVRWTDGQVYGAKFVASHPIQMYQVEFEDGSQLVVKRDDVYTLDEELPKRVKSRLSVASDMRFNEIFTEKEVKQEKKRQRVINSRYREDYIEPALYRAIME

Each compound was assayed against Lysine-specific demethylase 4A (Homo sapiens) (UniProt O75164) (assay: JMJD2A histone demethylase inhibitors, dose response, selectivity assay for GASC-1 inhibitor project, biochemical, DELFIA europium, cherry-picked samples (AID 488840;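 further: europium signal reports the dimethyl H3K9 product detected by antibody so inhibitors lower it; 0% = median of neutral control wells and -100% = median of positive control wells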)). Settings: GST-JMJD2A(1-420) H3K9me3 demethylation; at 6 µM (top of the series) unless noted.

Activity change, negative = inhibition, inactive:
COc1ccc(S(=O)(=O)Nc2ccc3c(c2)CC(=O)N([C@@H](C)CO)C[C@H](C)[C@@H](CN(C)S(=O)(=O)c2ccc(F)cc2)O3)cc1 -0.126%, CCNC(=O)c1ccc2c(c1)S(=O)(=O)c1ccccc1C2=O 0.302%, CC(C)NC(=O)N(C)C[C@H]1Oc2ccc(NC(=O)C3CC3)cc2C(=O)N([C@H](C)CO)C[C@@H]1C -5.78%, N=C1C(c2nc3ccccc3s2)=C(O)CN1Cc1ccccc1 6.89%, Cc1ccc(/C(N)=N/OC(=O)CCC2CCCCC2)cc1 0.447%, Nc1c(Cl)ncnc1NCc1cccnc1 -3.71%, COc1ccccc1CNC(=O)COc1ccc(S(=O)(=O)N2CCOCC2)cc1C -1.64%, CCN(CC)C(=O)[C@H]1CC(CC(=O)NCc2cccc(C(F)(F)F)c2)C(=O)N2CCc3c([nH]c4ccccc34)[C@]12C (stereo partly drawn) -4.76%, CCn1c(O)c(N=NC2=NC(=O)CS2)c2ccccc21 2.94%, Cc1cc(NC(=O)Nc2c[nH]c(=O)[nH]c2=O)ccc1Br 8.1%, O=C(NCc1nnc(SCC(=O)N2CCCC2)o1)c1ccccc1F -1.83%, CCn1nc(C(=O)NNC(=O)COc2ccc(OC)cc2)c2ccccc2c1=O -3.84%, Cc1ccc(S(=O)(=O)N2CCOCC2)cc1NC(=O)COC(=O)c1cc(=O)[nH]c2ccccc12 6.67%, CCCCN1CC[C@H]2C=CC[C@@H](C(=O)Nc3ccc(OC)cc3)[C@H]2C1=O 4.58%, C#CCOCCOCCOCCNc1nc(N2CCN(C(=O)CCCCCCCCCCNC(=O)[C@H]([C@@H](C)CC)n3cc(CCCCN=C(N)N)nn3)CC2)nc(N2CCN(C(=O)CCCCCCCCCCNC(=O)[C@H](CCCCN)n3cc(C)nn3)CC2)n1 4.37%, COc1ccc(NC(=O)N(C)C[C@H]2Oc3ccc(NC(=O)CCN4CCOCC4)cc3C(=O)N([C@H](C)CO)C[C@@H]2C)cc1 -1.41%, C#CCNC(=O)C1=C[C@@H](c2ccc(C(F)(F)F)cc2)C[C@@H](OCCCCO)O1 -3.47%, CCOC(=O)c1ccc2c(c1)nc(COc1ccc3ccccc3c1)n2CC -3.54%, C[C@@H](NC(=O)Cn1cnc2c(OCc3ccccc3)ncnc21)c1cccc2ccccc12 -1.72%, Cc1ccc(-c2nnc(SC(C)C(=O)NCC3CCCO3)nc2-c2ccc(C)cc2)cc1 (stereo not drawn) -9.73%, O=C(NNC(=O)c1cccnc1Cl)c1ccc(F)cc1 -2.64%, Cc1c(C(=O)N2CCC3(CC2)CC(=O)c2ccccc2O3)cccc1[N+](=O)[O-] -1.01%, COCCCNC(=O)C1CCN(C(=O)Nc2ccc(Cl)cc2)CC1 3.89%, Cc1cc(SCC(=O)c2ccccc2)n2nc(C)nc2n1 4.99%, O=C(NCCNc1ccc([N+](=O)[O-])cc1C(F)(F)F)c1ccccc1 5.17%, O=C(Nc1c(F)cc(F)cc1Br)c1ccco1 -12.7%, Cc1c(NC(=O)C2Cc3ccccc3CN2C(=O)c2ccco2)c(=O)n(-c2ccccc2)n1C (stereo not drawn) -1.71%, CC(=O)c1cc2c(O)c(O)ccc2o1 6.75%, COc1ccc(S(=O)(=O)Nc2cccc3c2O[C@H](CN(C)Cc2ccc(C(=O)O)cc2)[C@@H](C)CN([C@H](C)CO)C3=O)cc1 -3.72%, Cc1cccc(NCc2ccc(O)c3ncccc23)c1 -3.9%, COc1cc([N+](=O)[O-])ccc1NC(=O)CSc1nccn1C -5.89%, CCCc1nn(C)c(C(=O)Nc2ccc(C)c(C)c2)c1Cl -3.92%, COc1ccc(/C=N/NS(=O)(=O)c2ccc(NC(C)=O)cc2)cc1 3.47%, O=C(O)Cc1ccc2oc(-c3cccnc3)nc2c1 1.66%, Cc1cccn2c(=O)c3cc(C(=O)NCCN4CCOCC4)c(=N)n(CCc4ccccc4)c3nc12 -0.474%, O=[N+]([O-])c1cc(-c2cnc3ccccc3n2)ccc1Oc1ccc(F)cc1 2.93%, Cc1cccc(C2=N/C(=C\c3cccnc3)C(=O)O2)c1 -0.971%, Cc1ccc(S(=O)(=O)NC(=O)NCc2ccc(Cl)cc2)cc1 -5.3%, COc1ccc(C(=O)N2CCCC(c3nc(-c4ccc(OC)c(OC)c4)no3)C2)c(OC)c1 (stereo not drawn) -2.52%, CN1CCC[C@H]1CCNC(=O)c1c(-c2ccsc2)sc2ccccc12 4.72%, Cc1cc2oc(=O)cc(CSc3nnc(-c4cccs4)o3)c2cc1C(C)C -1.67%, C[C@H](CO)N1C[C@H](C)[C@@H](CN(C)C(=O)Nc2ccc(C(F)(F)F)cc2)Oc2c(cccc2N(C)C)C1=O 4.24%, Cc1nnc(N=c2ssnc2Cl)o1 4%, Cc1onc(-c2c(F)cccc2Cl)c1C(=O)NC1CC1 0.723%, Cc1csc(NC(=O)CSc2nnc(-c3ccncc3)n2C)n1 0.336%, CCn1c(SCC(=O)NCC(=O)Nc2ccc(F)cc2)nnc1-c1ccncc1 0.15%, COC(=O)COc1ccc(Oc2cc(C)nc(SC)n2)nn1 -1.19%, Cc1nc2nc(C)c(CCC(=O)NCc3ccc4c(c3)OCO4)c(C)n2n1 -2.25%, COc1ccc(NC(=O)CNC(=O)c2nn(-c3ccc(OC)c(Cl)c3)c(=O)c3ccccc23)c(OC)c1 0.725%, COC(=O)c1ccc(CSc2nc3sc(C(=O)O)c(C)c3c(=O)[nH]2)cc1 1.96%, CC[C@]12c3[nH]c4ccccc4c3CCN1C(=O)C(CC(=O)NCCCOC)C[C@@H]2C(=O)N1CCN(C(=O)C2CC2)CC1 (stereo partly drawn) -3.68%, O=C(CSc1nc2ccccc2c(=O)n1Cc1ccccc1)NCc1ccco1 1.53%, CCS(=O)(=O)N1CCN(c2ccc([N+](=O)[O-])c(N3CCOCC3)c2)CC1 2.06%
